Reference: PubChem BioAssay AID743255 (National Center for Advancing Translational Sciences (NCATS), 2014)
Screen size: about 390,000 compounds; about 910 (0.23%) were called active. This list was built around the results that the source calls inconclusive (neither active nor inactive); the mix of calls is not that of the screen. The call rests on the fitted dose curve; in most records, active means well fitted inhibition curve with a large enough effect; inconclusive means small, poorly fitted or top-dose-only effect; inactive means no such curve, though single readings can be large or run the other way. Potencies of inconclusive entries are doubtful fits and often do not repeat.

Protein sequences, listed by entry. Tags and fused reporters are not part of them. Lines headed by an entry give the natural chain unless they say otherwise; changes in a name come on top.
UniProt O94782: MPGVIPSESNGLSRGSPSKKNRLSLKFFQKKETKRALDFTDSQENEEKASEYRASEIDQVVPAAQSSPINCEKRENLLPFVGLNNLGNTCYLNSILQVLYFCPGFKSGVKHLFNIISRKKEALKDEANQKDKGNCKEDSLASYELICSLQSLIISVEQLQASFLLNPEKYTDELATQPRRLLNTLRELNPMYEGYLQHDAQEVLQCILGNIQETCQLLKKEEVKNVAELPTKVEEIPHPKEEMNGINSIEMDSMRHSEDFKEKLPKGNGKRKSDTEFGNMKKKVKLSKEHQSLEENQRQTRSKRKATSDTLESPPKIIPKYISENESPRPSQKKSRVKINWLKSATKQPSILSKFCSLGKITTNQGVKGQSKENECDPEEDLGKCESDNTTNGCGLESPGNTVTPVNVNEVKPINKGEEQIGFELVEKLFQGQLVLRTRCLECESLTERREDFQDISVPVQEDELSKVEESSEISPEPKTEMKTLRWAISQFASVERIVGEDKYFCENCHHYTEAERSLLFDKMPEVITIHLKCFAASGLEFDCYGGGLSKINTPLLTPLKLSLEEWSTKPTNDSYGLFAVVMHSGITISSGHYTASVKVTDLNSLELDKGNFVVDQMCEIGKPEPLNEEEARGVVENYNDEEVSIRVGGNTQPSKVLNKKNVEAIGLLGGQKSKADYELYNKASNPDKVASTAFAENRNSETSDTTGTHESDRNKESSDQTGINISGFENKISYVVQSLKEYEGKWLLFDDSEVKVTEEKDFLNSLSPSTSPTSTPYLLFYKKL

Molecular target: Ubiquitin carboxyl-terminal hydrolase 1 (Homo sapiens) (UniProt O94782)
Experiment: Inhibitors of USP1/UAF1: Primary Screen; further: nearly all actives have a fitted effect of over 60% in size
Conditions: recombinant USP1/UAF1, Ub-Rhodamine cleavage fluorescence; series mostly up to 57.1 µM
Procedure, shortened: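 1 nM enzyme complex + cpd, 15 min RT; start with Ub-Rho 150nM final; kinetic fluorescence ex 480/em 540, 6 reads q60 s. Buffer 50mM HEPES pH 7.8, 0.5mM EDTA, 0.1 mg/ml BSA, 1mM TCEP, 0.01% Tween-20.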
Potency means the concentration at half of the fitted maximal effect.

Potency, inconclusive:
CC(=O)Nc1ccc(NC(=O)CSc2nc3ccccc3nc2N2CCOCC2)cc1 178 µM [inhibitor, partial curve, poor fit]
COc1ccc(/C=C/c2c(-c3ccc(OC)cc3)oc3ccc(-c4ccc(OC)cc4)cc23)cc1 0.251 µM [inhibitor, full curve, poor fit]
C=CC[C@H]1CC(C)=C[C@H](CC=C)N1C(=O)c1cc(COc2ccccc2SC)on1 35.5 µM [inhibitor, partial curve]
CC(C)C[C@H](NC(=O)c1nc[nH]c1C(=O)N[C@@H](CC(C)C)C(=O)OC(C)(C)C)C(=O)OCc1ccccc1 56.2 µM [inhibitor, partial curve, poor fit]
CCOc1cc(N2CCOCC2)c(OCC)cc1NC(=O)CSc1cccc[n+]1[O-] 15.8 µM [inhibitor, single point]
O=C1c2ccccc2C(=O)N1CCC1(O)C(c2ccccc2)=Nc2ccccc21 (stereo unspecified) 11.2 µM [inhibitor, partial curve]
Cc1ccc2c(c1)NC(c1cccnc1)=NC(c1ccc(F)cc1)=N2 39.8 µM [inhibitor, single point]
CCOc1cc(-c2nc3c(c(CC)nn3-c3ccccc3)c3cc(OC)c(OC)cc23)ccc1O 6.31 µM [inhibitor, full curve, poor fit]
CCOC(=O)c1c(NC(=O)c2ccccc2Cl)sc2c1CCCC2 39.8 µM [inhibitor, single point]
CC(NC(=O)c1ccco1)C(=O)OC(C)C(=O)NCc1ccccc1 (stereo unspecified) 39.8 µM [inhibitor, partial curve]
COc1cccc(C(=O)/C=C/Nc2cc(C)ccc2O)c1 39.8 µM [inhibitor, partial curve]
Cc1cccc(OCC(=O)OCc2cc(=O)n3nc(C4CCCCC4)sc3n2)c1 50.1 µM [inhibitor, partial curve, poor fit]
Nc1nc2ccc(OC(F)(F)F)cc2s1 31.6 µM [inhibitor, single point]
CCOCCCNC(=O)C1CCN(Cc2cccc(OCc3ccccc3)c2)CC1 3.55 µM [inhibitor, partial curve]
CCOc1ccc(CNC(=O)c2cc3ccccn3n2)cc1OC 31.6 µM [inhibitor, partial curve]
Cc1ccc(-c2cccc(C(=O)NCc3ccccc3)n2)c2ccccc12 89.1 µM [inhibitor, partial curve, poor fit]
O=C(COc1ccccc1Cl)NCCNC(=O)c1ccco1 6.31 µM [inhibitor, single point]
CN(Cc1ccccc1)C(=O)C1CCN(S(=O)(=O)Cc2ccccc2)CC1 14.1 µM [inhibitor, partial curve, poor fit]
Cc1ccc(NC(=O)CNC(=O)c2ccc(C(C)(C)C)cc2)cc1S(=O)(=O)N1CCOCC1 31.6 µM [inhibitor, single point]
CCOC(=O)c1c(-c2ccccc2)oc2ccc(NS(=O)(=O)c3ccc(C)cc3C)cc12 0.708 µM [inhibitor, full curve, poor fit]
O=C(NC1CC(=O)N(c2cccc(F)c2)C1)C1CC1 (stereo unspecified) 1.26 µM [inhibitor, full curve]
Cc1ccc(NC(=O)c2oc3ccccc3c2NC(=O)c2ccccc2C)cc1 10 µM [inhibitor, full curve, poor fit]
Nc1cccc(-c2cn3ccsc3n2)c1 70.8 µM [inhibitor, partial curve, poor fit]
O=C(CSc1nc2cc(Cl)ccc2s1)NC(=O)NCc1ccco1 0.631 µM [inhibitor, full curve, poor fit]
O=C1OCCN1C(=O)[C@H]1[C@H](c2ccc(F)cc2)C(c2ccc(F)cc2)=NN1c1ccccc1 44.7 µM [inhibitor, partial curve, poor fit]
O=C1Nc2ccccc2C1=Nc1ccc(-c2nnc3n2CCCCC3)cc1 17.8 µM [inhibitor, partial curve]
CC1CCCC(C)N1C(=O)COC(=O)c1cc(=O)[nH]c2ccccc12 (stereo unspecified) 25.1 µM [inhibitor, single point]
Cc1ccc(S(=O)(=O)/N=C2\C(=O)c3ccccc3C([O-])=C2n2cc[n+](CCC(C)C)c2)cc1 28.2 µM [inhibitor, partial curve]
CCOc1cc(S(=O)(=O)n2ccnc2C(C)C)ccc1Cl 0.562 µM [inhibitor, full curve, poor fit]
CCCCC(=O)Nc1ccc(C(=O)NNC(=O)CCc2ccccc2)cc1 0.282 µM [inhibitor, full curve, poor fit]
CCN1C(=O)/C(=C/c2cn(-c3ccccc3)nc2-c2cccnc2)SC1=S 5.01 µM [inhibitor, full curve]
C/C(=N\NC(=O)COc1ccc(C(C)(C)C)cc1)c1cc2ccccc2o1 5.01 µM [inhibitor, partial curve]
O=[N+]([O-])c1cc(-c2ccc(C(=S)N3CCOCC3)o2)ccc1Cl 31.6 µM [inhibitor, partial curve]
O=C1C=CC(O)(c2cc(=O)c3c(O)cc(O)cc3o2)C=C1 44.7 µM [inhibitor, partial curve]
CC1(C)CC2C1CCC1(O)CC2(C)CCC1N(O)c1ccc(C(=O)NCCO)cn1 (stereo unspecified) 50.1 µM [inhibitor, partial curve, poor fit]
CNc1ccc(Br)cc(C(=O)/C=C/c2ccc3c(c2)OCO3)c1=O 39.8 µM [inhibitor, partial curve, poor fit]
CCc1ccc(NC(=O)C2CCN(S(=O)(=O)c3ccc4[nH]c5c(c4c3)CCCCC5)CC2)cc1 7.94 µM [inhibitor, full curve]
COc1cccc(COC(=O)C2CCN(S(=O)(=O)c3ccc(F)cc3)CC2)c1OC 0.708 µM [inhibitor, full curve]
COc1cc(NC(=O)c2ccccc2)ccc1NC(=O)c1cc2ccccc2o1 0.282 µM [inhibitor, full curve, poor fit]
Cc1ccc(CNC(=O)C2CCN(c3nc4ccccc4n(C)c3=O)CC2)cc1 44.7 µM [inhibitor, partial curve]
CCOCCCNC(=S)N1CCCN(c2nc3cc(C)cc(C)c3cc2C#N)CC1 44.7 µM [inhibitor, partial curve, poor fit]
O=C(CSc1nc2c(c(=O)[nH]1)CCC2)Nc1ccccc1F 5.62 µM [inhibitor, single point]
CN(C)c1ccc(CNc2nc(-c3ccco3)nn2S(=O)(=O)c2ccc3ccccc3c2)cc1 35.5 µM [inhibitor, partial curve]
CCN(CC)CCCNC(=O)c1cc2nc3c(c(C(F)(F)F)n2n1)CCc1ccccc1-3 44.7 µM [inhibitor, partial curve, poor fit]
Cc1c(Cl)ccc2sc(N3CCN(C(=O)c4ccco4)CC3)nc12 35.5 µM [inhibitor, partial curve]
CCOC(=O)c1c(C)[nH]c(N=Nc2ccccc2C)c1C 17.8 µM [inhibitor, partial curve]
O=C(Nc1ccccc1)c1cccc2c(=O)c3c([nH]c12)CCCC3 2.24 µM [inhibitor, partial curve]

For reference, part of the list above:
Potency, inconclusive:
Cc1ccc(CNC(=O)C2CCN(c3nc4ccccc4n(C)c3=O)CC2)cc1 44.7 µM [inhibitor, partial curve]
CCOCCCNC(=S)N1CCCN(c2nc3cc(C)cc(C)c3cc2C#N)CC1 44.7 µM [inhibitor, partial curve, poor fit]

Next part:

Potency, inactive:
COC(=O)c1ccc(CN2CCC(n3nccc3NC(=O)C3CC3)CC2)cc1
COc1cccc(N/C(N)=N/c2nc(C(F)(F)F)cc(=O)[nH]2)c1
O=[N+]([O-])c1ccc(COc2ncnc3ccccc23)cc1
COc1ccc(OCC(O)CNCCOc2ccccc2OC)c(C(C)(C)C)c1 (stereo unspecified)
COc1ccc(C(=O)/C(C#N)=N/Nc2ccccc2[N+](=O)[O-])cc1
Cc1ccc(-c2nnc(SCc3ccccc3C#N)o2)cc1
CCOC(=O)c1c(-c2ccccc2)csc1NC(=O)/C(C#N)=C/c1ccc(O)c(OC)c1
O=C(O)C(c1ccccc1)C(O)C1CCCC1 (stereo unspecified)
CSc1ccccc1NC(=O)C1=CC(c2ccc(C)cc2)=NS(=O)(=O)N1C
Oc1ccccc1C(=S)N1CCCCCC1
CCN1CCN(c2oc(/C=C/c3ccccc3OC)nc2C#N)CC1
CC1CCN(CCCNC(=O)c2cc(Sc3ccc(F)cc3)nc3ccccc23)CC1
CCOc1ccc(NC(=O)CCn2cnc3onc(-c4ccc(F)cc4)c3c2=O)cc1
O=C1NC(c2cccc(Cl)c2)Oc2ccccc21 (stereo unspecified)
COc1ccccc1N1CCN(C(=O)c2cc3c(=O)n(Cc4ccco4)ccc3nc2C)CC1
CCC(C)(C)C1CCc2c(sc(NC(=O)C3c4ccccc4Oc4ccccc43)c2C(N)=O)C1 (stereo unspecified)
Cc1cc(=O)oc2c1ccc1oc(/C(=N/O)c3ccccc3)c(C)c12
COc1ccc(F)cc1CSc1nnnn1-c1ccc(O)cc1
FC(F)Oc1ccc(NC(=S)Nn2cnnc2)cc1

Nine entries from above, sorted by formula weight, high to low.
Potency, inactive:
CCC(C)(C)C1CCc2c(sc(NC(=O)C3c4ccccc4Oc4ccccc43)c2C(N)=O)C1 (stereo unspecified)
COc1ccccc1N1CCN(C(=O)c2cc3c(=O)n(Cc4ccco4)ccc3nc2C)CC1
CCOC(=O)c1c(-c2ccccc2)csc1NC(=O)/C(C#N)=C/c1ccc(O)c(OC)c1
CCOc1ccc(NC(=O)CCn2cnc3onc(-c4ccc(F)cc4)c3c2=O)cc1
CSc1ccccc1NC(=O)C1=CC(c2ccc(C)cc2)=NS(=O)(=O)N1C
COC(=O)c1ccc(CN2CCC(n3nccc3NC(=O)C3CC3)CC2)cc1
Cc1cc(=O)oc2c1ccc1oc(/C(=N/O)c3ccccc3)c(C)c12
COc1cccc(N/C(N)=N/c2nc(C(F)(F)F)cc(=O)[nH]2)c1
Oc1ccccc1C(=S)N1CCCCCC1
